From the supplement of paper PMC12819154, “High-throughput peptide-centric local stability assay extends protein–ligand identification to membrane proteins, tissues and bacteria” (Nature Structural & Molecular Biology, 2025)
This is one part of the list. Most entries show no effect beyond the scatter of the controls.

By UniProt entry, the sequences of proteins in these tests, tags left out. Where a name states a change or a piece, a line headed by the entry shows the natural chain unless it says otherwise.
UniProt Q96NG3: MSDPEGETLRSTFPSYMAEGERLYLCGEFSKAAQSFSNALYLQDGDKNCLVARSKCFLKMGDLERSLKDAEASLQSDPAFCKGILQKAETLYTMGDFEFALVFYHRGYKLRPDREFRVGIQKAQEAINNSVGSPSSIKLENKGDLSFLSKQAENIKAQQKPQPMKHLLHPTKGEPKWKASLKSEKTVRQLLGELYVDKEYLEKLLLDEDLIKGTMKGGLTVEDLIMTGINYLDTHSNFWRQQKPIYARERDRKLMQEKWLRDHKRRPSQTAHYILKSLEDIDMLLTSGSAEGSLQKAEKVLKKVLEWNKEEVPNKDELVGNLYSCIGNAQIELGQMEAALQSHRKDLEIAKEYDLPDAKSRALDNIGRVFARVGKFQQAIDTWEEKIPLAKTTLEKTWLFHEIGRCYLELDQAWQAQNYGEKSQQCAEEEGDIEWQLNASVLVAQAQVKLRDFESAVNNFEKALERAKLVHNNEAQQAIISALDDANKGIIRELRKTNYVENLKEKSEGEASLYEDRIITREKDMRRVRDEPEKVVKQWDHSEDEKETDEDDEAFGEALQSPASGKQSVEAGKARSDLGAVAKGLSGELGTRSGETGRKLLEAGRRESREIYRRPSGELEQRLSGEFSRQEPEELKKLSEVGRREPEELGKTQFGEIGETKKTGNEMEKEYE
UniProt Q96MX0: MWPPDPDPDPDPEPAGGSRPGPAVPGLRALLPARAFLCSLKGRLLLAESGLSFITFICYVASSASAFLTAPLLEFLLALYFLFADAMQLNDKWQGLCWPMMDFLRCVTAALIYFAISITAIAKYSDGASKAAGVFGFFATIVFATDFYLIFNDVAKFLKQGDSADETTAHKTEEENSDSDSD
UniProt Q96T58, whole entry: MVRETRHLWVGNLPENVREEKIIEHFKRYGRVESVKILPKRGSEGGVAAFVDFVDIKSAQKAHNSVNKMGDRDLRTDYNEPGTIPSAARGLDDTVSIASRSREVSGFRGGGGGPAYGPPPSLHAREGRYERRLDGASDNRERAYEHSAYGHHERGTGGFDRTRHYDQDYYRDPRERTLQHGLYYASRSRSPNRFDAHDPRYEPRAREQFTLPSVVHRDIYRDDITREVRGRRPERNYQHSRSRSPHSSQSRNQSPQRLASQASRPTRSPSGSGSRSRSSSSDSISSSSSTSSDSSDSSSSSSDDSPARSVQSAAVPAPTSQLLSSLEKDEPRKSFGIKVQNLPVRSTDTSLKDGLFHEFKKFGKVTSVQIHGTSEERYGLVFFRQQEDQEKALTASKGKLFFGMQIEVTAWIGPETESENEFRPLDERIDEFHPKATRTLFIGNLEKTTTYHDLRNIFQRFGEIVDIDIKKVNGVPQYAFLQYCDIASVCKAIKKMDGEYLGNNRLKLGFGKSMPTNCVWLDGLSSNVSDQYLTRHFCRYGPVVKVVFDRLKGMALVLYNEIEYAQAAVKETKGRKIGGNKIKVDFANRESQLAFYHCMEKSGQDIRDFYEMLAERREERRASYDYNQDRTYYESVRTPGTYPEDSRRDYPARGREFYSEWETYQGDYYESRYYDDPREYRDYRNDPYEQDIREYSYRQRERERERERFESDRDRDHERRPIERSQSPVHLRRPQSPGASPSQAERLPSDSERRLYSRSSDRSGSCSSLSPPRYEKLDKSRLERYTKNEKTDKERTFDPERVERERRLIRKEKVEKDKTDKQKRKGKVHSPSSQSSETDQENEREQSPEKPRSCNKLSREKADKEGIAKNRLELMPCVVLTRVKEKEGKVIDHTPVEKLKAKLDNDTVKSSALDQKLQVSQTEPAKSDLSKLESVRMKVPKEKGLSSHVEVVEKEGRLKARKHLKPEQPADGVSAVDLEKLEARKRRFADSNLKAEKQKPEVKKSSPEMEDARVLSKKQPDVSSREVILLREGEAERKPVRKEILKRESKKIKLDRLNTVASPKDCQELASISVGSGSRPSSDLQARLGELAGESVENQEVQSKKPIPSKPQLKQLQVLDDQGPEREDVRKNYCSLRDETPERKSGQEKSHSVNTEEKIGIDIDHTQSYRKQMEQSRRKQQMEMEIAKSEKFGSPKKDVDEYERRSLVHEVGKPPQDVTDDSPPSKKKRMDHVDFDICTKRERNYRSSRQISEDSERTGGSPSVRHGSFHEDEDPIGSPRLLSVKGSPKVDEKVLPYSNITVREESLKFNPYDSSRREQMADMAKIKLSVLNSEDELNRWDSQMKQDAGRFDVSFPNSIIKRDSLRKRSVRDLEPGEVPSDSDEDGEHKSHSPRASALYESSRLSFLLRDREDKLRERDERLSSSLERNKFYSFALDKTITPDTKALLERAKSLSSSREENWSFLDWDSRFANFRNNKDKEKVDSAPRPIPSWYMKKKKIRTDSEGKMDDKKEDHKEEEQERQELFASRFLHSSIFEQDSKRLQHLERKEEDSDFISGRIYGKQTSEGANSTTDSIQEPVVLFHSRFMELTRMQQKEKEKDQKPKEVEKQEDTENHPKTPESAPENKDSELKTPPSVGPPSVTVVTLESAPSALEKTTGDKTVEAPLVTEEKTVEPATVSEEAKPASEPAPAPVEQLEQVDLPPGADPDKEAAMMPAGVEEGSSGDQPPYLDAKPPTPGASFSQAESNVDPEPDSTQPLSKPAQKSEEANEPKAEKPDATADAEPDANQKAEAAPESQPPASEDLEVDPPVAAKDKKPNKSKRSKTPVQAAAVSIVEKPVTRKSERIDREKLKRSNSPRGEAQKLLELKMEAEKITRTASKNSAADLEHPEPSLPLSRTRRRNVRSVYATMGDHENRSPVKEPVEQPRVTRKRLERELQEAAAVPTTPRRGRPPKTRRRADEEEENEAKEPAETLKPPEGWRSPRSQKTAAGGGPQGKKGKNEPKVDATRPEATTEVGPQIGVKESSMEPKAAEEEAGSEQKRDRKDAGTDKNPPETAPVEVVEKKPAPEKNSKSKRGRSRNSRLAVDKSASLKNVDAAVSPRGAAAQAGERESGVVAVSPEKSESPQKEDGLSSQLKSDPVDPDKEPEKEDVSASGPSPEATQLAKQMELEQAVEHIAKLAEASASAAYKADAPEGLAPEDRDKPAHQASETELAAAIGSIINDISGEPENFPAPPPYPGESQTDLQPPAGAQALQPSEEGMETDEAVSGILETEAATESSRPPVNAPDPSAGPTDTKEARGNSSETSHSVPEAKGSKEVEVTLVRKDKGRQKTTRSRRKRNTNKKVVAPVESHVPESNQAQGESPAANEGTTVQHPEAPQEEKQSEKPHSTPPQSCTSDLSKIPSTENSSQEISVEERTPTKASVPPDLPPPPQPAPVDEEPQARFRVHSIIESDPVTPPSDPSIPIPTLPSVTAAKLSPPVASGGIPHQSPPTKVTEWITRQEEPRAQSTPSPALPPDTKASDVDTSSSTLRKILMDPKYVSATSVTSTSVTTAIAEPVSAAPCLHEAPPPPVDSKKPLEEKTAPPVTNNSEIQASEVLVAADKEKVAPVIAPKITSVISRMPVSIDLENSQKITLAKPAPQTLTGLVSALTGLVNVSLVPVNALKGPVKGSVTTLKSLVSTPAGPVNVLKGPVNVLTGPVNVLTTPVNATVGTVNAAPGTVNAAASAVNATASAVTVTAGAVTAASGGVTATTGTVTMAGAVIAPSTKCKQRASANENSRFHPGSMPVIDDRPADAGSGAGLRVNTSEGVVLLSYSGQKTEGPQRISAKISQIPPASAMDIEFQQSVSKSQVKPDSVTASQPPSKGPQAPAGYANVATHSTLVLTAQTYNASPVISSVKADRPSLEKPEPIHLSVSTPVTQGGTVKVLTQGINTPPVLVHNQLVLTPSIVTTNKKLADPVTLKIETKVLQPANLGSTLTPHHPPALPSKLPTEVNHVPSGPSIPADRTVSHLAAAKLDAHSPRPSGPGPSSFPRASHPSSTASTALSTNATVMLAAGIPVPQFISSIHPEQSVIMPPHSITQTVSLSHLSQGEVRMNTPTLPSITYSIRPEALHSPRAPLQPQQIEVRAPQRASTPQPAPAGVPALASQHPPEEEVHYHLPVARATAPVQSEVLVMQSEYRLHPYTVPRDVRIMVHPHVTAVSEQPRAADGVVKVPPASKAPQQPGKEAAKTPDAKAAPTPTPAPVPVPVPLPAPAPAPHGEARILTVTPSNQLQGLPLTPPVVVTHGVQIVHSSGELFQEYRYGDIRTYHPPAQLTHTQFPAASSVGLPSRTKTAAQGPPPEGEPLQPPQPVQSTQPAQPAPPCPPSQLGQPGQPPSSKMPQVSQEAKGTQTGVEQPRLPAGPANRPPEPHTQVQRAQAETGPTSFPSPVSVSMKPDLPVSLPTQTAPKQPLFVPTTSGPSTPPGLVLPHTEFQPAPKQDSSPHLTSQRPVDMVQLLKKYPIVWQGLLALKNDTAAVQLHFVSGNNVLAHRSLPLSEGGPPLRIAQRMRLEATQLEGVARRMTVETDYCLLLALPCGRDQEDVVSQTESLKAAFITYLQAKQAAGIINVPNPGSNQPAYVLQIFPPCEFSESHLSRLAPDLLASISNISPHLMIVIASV
UniProt Q96MG7: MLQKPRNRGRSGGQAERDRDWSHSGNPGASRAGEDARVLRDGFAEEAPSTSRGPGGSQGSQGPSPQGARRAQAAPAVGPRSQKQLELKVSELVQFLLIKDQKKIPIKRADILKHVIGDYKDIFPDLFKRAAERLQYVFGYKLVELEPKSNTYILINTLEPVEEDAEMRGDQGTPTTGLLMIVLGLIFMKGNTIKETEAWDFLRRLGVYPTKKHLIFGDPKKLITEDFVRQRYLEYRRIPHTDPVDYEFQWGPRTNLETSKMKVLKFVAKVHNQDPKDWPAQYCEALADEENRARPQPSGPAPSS
UniProt Q96RK4: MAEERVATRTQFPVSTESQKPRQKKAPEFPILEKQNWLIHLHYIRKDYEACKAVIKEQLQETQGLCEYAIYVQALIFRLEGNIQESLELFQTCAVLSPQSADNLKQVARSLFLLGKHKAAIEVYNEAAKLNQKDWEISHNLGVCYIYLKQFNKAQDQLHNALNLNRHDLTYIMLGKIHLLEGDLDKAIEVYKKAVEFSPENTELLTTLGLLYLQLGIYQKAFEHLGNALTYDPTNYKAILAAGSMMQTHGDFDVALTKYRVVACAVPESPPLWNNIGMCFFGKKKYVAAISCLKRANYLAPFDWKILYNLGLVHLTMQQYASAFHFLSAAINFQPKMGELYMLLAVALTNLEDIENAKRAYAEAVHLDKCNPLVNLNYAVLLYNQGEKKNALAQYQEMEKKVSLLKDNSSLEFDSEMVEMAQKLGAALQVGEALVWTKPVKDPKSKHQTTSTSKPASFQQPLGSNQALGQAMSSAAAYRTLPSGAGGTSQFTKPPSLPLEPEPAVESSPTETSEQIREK
UniProt Q96HJ9: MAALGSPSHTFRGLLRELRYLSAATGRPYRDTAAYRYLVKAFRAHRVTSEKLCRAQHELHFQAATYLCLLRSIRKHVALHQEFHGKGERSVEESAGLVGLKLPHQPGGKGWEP
UniProt Q96NT0: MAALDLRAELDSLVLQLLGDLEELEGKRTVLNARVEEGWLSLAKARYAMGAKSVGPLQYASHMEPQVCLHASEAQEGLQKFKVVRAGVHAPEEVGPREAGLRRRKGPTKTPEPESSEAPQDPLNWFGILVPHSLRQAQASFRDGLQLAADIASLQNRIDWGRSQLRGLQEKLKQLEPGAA

Each target was assayed with CN[C@@H]1C[C@H]2O[C@@](C)([C@@H]1OC)n1c3ccccc3c3c4c(c5c6ccccc6n2c5c31)C(=O)NC4 [staurosporine] (assay: log2 fold change of tryptic peptide abundance, ligand vs vehicle (limited proteolysis) (log2 ratio); higher = more trypsin-susceptible (destabilized)). Conditions: ligand concentration: 20 uM; sample: K562 cleared lysate; digestion: 4 min, 22 C (HT-PELSA RT4min, Orbitrap Astral).

Target	log2 fold change
UniProt Q96NG3 (peptide sequence: SEGEASLYEDR, peptide start residue: 507)	0.0184
CMTM3 (peptide sequence: PGPAVPGLR, peptide start residue: 20) (UniProt Q96MX0)	0.0729
TUBGCP6 (peptide sequence: LKEQFVK, peptide start residue: 709) (UniProt Q96RT7)	-0.414
SPEN (peptide sequence: EQMADMAK, peptide start residue: 1318) (UniProt Q96T58)	1.1
UniProt Q96MG7 (peptide sequence: VSELVQFLLIKDQK, peptide start residue: 89)	0.379
BBS4 (peptide sequence: TQFPVSTESQKPR, peptide start residue: 10) (UniProt Q96RK4)	-0.275
FMC1 (peptide sequence: AALGSPSHTFR, peptide start residue: 2) (UniProt Q96HJ9)	0.216
CCDC115 (peptide sequence: DGLQLAADIASLQNR, peptide start residue: 143) (UniProt Q96NT0)	-0.234
SNX27 (peptide sequence: EFANFTFPR, peptide start residue: 210) (UniProt Q96L92)	0.242

Quoted from the results shown for reference:
Target	log2 fold change
UniProt Q96MG7 (peptide sequence: VSELVQFLLIKDQK, peptide start residue: 89)	0.379
BBS4 (peptide sequence: TQFPVSTESQKPR, peptide start residue: 10) (UniProt Q96RK4)	-0.275
